Results reported in ChEMBL document CHEMBL5154857, “Discovery of potential novel CRBN modulators by virtual screening and bioassay” (Eur J Med Chem, 2022).

Tested on: A549
Assay: Antitumor activity against human A549 cells assessed as inhibition of cell growth incubated for 48 hrs by MTS assay
Format: functional, cell-based
Settings: A549, 48 h

CC(=O)O[C@H]1C(=O)[C@@]2(C)[C@H]([C@H](OC(=O)c3ccccc3)[C@]3(O)C[C@H](OC(=O)[C@H](O)[C@@H](NC(=O)c4ccccc4)c4ccccc4)C(C)=C1C3(C)C)[C@]1(OC(C)=O)CO[C@@H]1C[C@@H]2O [PACLITAXEL]
IC50: < 8 nM
